The record followed here is article PMC8814081.

By UniProt entry, the sequences of proteins in these tests, tags left out.
UniProt P29466: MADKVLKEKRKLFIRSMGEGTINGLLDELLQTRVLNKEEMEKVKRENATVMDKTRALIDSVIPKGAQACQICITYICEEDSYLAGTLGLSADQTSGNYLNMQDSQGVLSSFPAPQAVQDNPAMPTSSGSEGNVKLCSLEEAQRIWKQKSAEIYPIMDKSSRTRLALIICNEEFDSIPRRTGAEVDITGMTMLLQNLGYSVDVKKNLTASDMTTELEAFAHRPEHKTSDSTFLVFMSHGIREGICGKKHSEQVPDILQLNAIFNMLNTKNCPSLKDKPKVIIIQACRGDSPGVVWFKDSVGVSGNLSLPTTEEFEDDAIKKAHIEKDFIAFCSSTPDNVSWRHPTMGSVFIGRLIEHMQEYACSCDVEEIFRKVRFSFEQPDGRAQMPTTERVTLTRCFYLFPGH
UniProt Q86TM6: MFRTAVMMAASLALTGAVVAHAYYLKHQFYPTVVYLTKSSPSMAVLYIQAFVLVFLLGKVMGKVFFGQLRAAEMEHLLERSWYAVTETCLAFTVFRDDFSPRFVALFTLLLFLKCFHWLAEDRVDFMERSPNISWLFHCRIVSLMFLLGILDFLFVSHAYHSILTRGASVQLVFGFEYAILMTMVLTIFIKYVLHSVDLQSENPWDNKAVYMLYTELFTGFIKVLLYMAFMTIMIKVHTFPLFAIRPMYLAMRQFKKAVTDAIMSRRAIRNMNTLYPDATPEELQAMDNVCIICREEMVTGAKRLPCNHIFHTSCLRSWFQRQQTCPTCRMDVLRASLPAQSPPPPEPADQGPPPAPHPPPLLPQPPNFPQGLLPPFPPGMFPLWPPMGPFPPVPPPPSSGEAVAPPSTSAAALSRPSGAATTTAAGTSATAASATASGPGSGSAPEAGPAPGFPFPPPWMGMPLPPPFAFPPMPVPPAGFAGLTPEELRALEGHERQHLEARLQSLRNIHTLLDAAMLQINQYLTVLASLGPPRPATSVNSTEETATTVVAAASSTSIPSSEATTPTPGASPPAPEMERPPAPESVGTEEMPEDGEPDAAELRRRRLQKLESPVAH

The target of assay [1] is p3 × Flag-Caspase-1 (human) (UniProt P29466). Kind of assay: co-IP; HEK293T cells co-transfected; lysates incubated with anti-Flag beads at 4 °C, washed with cold TBS; immunoblot with anti-Myc and anti-Flag. A general note: In western blotting, separated proteins are transferred to a membrane and probed.
Assay [2] addresses T1, p3 × Flag-Caspase-4 (human) (UniProt P49662).
T1 sequence: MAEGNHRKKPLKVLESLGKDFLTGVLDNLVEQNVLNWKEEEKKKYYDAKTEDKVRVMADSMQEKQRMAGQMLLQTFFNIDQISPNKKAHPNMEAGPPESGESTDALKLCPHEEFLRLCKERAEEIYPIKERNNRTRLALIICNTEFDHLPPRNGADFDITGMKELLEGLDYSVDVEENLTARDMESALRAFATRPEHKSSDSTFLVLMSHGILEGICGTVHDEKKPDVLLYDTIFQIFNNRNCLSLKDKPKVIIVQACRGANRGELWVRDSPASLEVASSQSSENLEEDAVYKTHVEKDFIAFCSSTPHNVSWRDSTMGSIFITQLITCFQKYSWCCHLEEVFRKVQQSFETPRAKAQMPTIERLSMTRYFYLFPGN
Described as above.

Assay [3] addresses T2, Flag-human GSDMD (p3 × Flag-hGSDMD-FL) (human) (UniProt P57764).
T2 sequence: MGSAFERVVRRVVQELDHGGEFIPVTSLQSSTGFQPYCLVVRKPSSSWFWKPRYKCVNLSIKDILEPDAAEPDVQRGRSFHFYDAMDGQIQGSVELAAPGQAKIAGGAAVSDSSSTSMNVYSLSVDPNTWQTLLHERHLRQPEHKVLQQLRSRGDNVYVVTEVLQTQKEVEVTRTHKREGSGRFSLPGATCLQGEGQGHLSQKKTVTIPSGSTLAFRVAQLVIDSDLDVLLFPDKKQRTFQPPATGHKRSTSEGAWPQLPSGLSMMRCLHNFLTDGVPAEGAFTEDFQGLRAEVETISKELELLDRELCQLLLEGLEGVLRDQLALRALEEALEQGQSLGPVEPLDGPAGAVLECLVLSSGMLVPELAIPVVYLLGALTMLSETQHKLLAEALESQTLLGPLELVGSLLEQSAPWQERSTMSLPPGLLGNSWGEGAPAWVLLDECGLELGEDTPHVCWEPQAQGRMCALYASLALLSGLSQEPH
The description is as above.

Assay [4] deals with T3, endogenous GSDMD (THP-1 cells) (human (endogenous in THP-1)) (UniProt P57764).
T3 sequence: T2 sequence
The assay can be described thus: co-IP; endogenous proteins in THP-1 cells; immunoprecipitation with anti-SYVN1 or anti-GSDMD antibody, immunoblot with anti-SYVN1 and anti-GSDMD.

No constants are given. Whether binding was seen depends on the method and setting. In cells and extracts the contact can be indirect. Some results given as binding are weak or reduced against the parent protein; the word gives no strength. For some of these results: Sequences can lack the tags named with a protein.

Take “SYVN1-Myc (pcDNA3.1-SYVN1-Myc) (from UniProt Q86TM6 1-617) (enzyme)”: the results for the binding result in assay [1], in assay [2] and in assay [3] were “no binding”, “no binding” and “binds”, respectively.
In the case of “endogenous SYVN1 (THP-1 cells) (from UniProt Q86TM6 1-617) (enzyme)”, in assay [4], the binding entry is reported as “binds”.
